According to paper PMC11720525:
These are yes or no findings as the source states them, for the method shown. In cells and extracts the contact can be indirect. Some binding calls cover weakened binding; strength is not graded here.

The chains behind the UniProt entries cited, without tags or fusion partners.
UniProt P50135: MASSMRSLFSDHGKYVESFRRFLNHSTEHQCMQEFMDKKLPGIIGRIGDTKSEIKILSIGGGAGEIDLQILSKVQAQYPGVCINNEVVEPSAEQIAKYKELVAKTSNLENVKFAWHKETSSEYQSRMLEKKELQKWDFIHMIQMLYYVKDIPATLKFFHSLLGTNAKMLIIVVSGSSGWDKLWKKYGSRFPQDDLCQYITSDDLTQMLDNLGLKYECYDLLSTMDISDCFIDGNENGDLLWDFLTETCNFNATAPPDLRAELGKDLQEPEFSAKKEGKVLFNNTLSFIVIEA

How the values were obtained:
[1] = target: human epidermal growth factor receptor 2 (HER2) (human (endogenous in SKBR3 and in patients' tumour tissue)) (UniProt P04626); assay: FRET or BRET; acceptor-bleaching FRET on fixed cells (SKBR3, SK-HN, SK-Vc) stained with primary antibodies and fluorescent secondary antibodies; with or without EGF (100 ng/mL, 20 or 60 min) or NRG1
[2] = target: presenilin 2 (PS2) (human (endogenous in SKBR3)) (UniProt P49810); assay: as above
AmCyan-HER2 (human) = AmCyan-HER2 (human) (UniProt P04626); assay: FRET or BRET; live-cell FLIM-FRET in transfected SKBR3 cells; lifetime of the donor AmCyan by time-correlated single-photon counting; control and EGF-treated cells, 0, 5, 20, 60, 130 min
HER2-AmCyan (human) = HER2-AmCyan (human) (UniProt P04626); assay: as above
[3] = target: human epidermal growth factor receptor 2 (HER2) (human (endogenous in SKBR3 and in patients' tumour tissue)) (UniProt P04626); assay: FRET or BRET; FRET on SKBR3-derived cells transiently transfected with the HER1 KO (CRISPR) plasmid, with or without EGF (100 ng/mL, 20 min)
[4] = target: HER1 (EGFR) (human (endogenous in SKBR3)) (UniProt P00533); assay: FRET or BRET; acceptor-bleaching FRET on fixed cells (SKBR3, SK-HN, SK-Vc) stained with primary antibodies and fluorescent secondary antibodies; with or without EGF (100 ng/mL, 20 or 60 min) or NRG1
[5] = target: human epidermal growth factor receptor 2 (HER2) (human (endogenous in SKBR3 and in patients' tumour tissue)) (UniProt P04626); assay: FRET or BRET; acceptor-bleaching FRET on sections of HER2+ breast tumours of trastuzumab-treated patients (responders n = 41, non-responders n = 7), stained with primary antibodies and fluorescent secondary antibodies; Leica TCS SP5
[6] = target: human epidermal growth factor receptor 2 (HER2) (human (endogenous in SKBR3 and in patients' tumour tissue)) (UniProt P04626); assay: co-IP; 500 ug of cell lysate with primary antibody or normal rabbit IgG, protein G agarose, four PBS washes, western blot; SKBR3 treated with EGF (100 ng/mL; 0, 20, 50 min), and SK-Vc, SK-HN, SK-Sc, SK-Si lysates precipitated for HNMT

“HNMT overexpressed in SKBR3 cells (SK-HN) (from UniProt P50135 1-292) (enzyme)” was tested, and the binding [1] was “binds” and the binding [2] was “binds”.
With “HNMT-ZsYellow (from UniProt P50135 1-292) (enzyme)” the binding (AmCyan-HER2 (human)) was “binds” and the binding (HER2-AmCyan (human)) was “binds”.
“histamine N-methyltransferase (HNMT) (from UniProt P50135 1-292) (enzyme)” was tested, and the binding [3] was “no binding (condition: HER1 knocked out (CRISPR))”, the binding [4] was “binds weakly” and the binding [1] was “binds”. For the same substance, the binding [5] was “binds” and the binding [6] was “binds”.
For “human epidermal growth factor receptor 2 (HER2) (from UniProt P04626 23-1255)”, the binding [2] was “binds”.
